Data as given in article PMC4792583.
These are yes or no findings as the source states them, for the method shown. Binding seen in cells or lysates may run through a third protein. Some entries that bind do so weakly or less than the wild type.

The chains behind the UniProt entries cited, without tags or fusion partners.
UniProt P17844: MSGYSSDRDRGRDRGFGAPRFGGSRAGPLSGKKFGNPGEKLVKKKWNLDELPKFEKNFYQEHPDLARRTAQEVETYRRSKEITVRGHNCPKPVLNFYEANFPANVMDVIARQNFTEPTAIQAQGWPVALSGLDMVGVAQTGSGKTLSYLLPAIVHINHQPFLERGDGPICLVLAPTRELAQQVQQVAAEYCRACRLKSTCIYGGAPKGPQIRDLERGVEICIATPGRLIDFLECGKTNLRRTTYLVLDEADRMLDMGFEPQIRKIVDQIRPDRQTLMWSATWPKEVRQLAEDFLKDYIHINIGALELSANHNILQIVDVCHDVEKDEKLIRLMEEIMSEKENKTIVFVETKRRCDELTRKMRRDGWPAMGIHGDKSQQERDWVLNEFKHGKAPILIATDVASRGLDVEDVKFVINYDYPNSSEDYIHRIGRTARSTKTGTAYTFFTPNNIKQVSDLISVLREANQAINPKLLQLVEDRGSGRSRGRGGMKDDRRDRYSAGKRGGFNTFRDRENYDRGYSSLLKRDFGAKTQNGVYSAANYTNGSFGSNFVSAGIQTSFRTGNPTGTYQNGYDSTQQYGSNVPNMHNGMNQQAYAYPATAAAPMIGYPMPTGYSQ

Biological target: p68 (human (endogenous in HEC-1B and HEC-50)) (UniProt P17844)
Assay: co-IP; immunoprecipitation from p53-null HEC-50 cells after transfection with different p53 expression plasmids (WTp53 or mutp53); which protein was precipitated is not told

binding: binds
B1: Drosha (enzyme, UniProt Q9NRR4 1-1374)
chain: MMQGNTCHRMSFHPGRGCPRGRGGHGARPSAPSFRPQNLRLLHPQQPPVQYQYEPPSAPSTTFSNSPAPNFLPPRPDFVPFPPPMPPSAQGPLPPCPIRPPFPNHQMRHPFPVPPCFPPMPPPMPCPNNPPVPGAPPGQGTFPFMMPPPSMPHPPPPPVMPQQVNYQYPPGYSHHNFPPPSFNSFQNNPSSFLPSANNSSSPHFRHLPPYPLPKAPSERRSPERLKHYDDHRHRDHSHGRGERHRSLDRRERGRSPDRRRQDSRYRSDYDRGRTPSRHRSYERSRERERERHRHRDNRRSPSLERSYKKEYKRSGRSYGLSVVPEPAGCTPELPGEIIKNTDSWAPPLEIVNHRSPSREKKRARWEEEKDRWSDNQSSGKDKNYTSIKEKEPEETMPDKNEEEEEELLKPVWIRCTHSENYYSSDPMDQVGDSTVVGTSRLRDLYDKFEEELGSRQEKAKAARPPWEPPKTKLDEDLESSSESECESDEDSTCSSSSDSEVFDVIAEIKRKKAHPDRLHDELWYNDPGQMNDGPLCKCSAKARRTGIRHSIYPGEEAIKPCRPMTNNAGRLFHYRITVSPPTNFLTDRPTVIEYDDHEYIFEGFSMFAHAPLTNIPLCKVIRFNIDYTIHFIEEMMPENFCVKGLELFSLFLFRDILELYDWNLKGPLFEDSPPCCPRFHFMPRFVRFLPDGGKEVLSMHQILLYLLRCSKALVPEEEIANMLQWEELEWQKYAEECKGMIVTNPGTKPSSVRIDQLDREQFNPDVITFPIIVHFGIRPAQLSYAGDPQYQKLWKSYVKLRHLLANSPKVKQTDKQKLAQREEALQKIRQKNTMRREVTVELSSQGFWKTGIRSDVCQHAMMLPVLTHHIRYHQCLMHLDKLIGYTFQDRCLLQLAMTHPSHHLNFGMNPDHARNSLSNCGIRQPKYGDRKVHHMHMRKKGINTLINIMSRLGQDDPTPSRINHNERLEFLGDAVVEFLTSVHLYYLFPSLEEGGLATYRTAIVQNQHLAMLAKKLELDRFMLYAHGPDLCRESDLRHAMANCFEALIGAVYLEGSLEEAKQLFGRLLFNDPDLREVWLNYPLHPLQLQEPNTDRQLIETSPVLQKLTEFEEAIGVIFTHVRLLARAFTLRTVGFNHLTLGHNQRMEFLGDSIMQLVATEYLFIHFPDHHEGHLTLLRSSLVNNRTQAKVAEELGMQEYAITNDKTKRPVALRTKTLADLLESFIAALYIDKDLEYVHTFMNVCFFPRLKEFILNQDWNDPKSQLQQCCLTLRTEGKEPDIPLYKTLQTVGPSHARTYTVAVYFKGERIGCGKGPSIQQAEMGAAMDALEKYNFPQMAHQKRFIERKYRQELKEMRWEREHQEREPDETEDIKK
